From PubChem BioAssay AID540275 (National Center for Advancing Translational Sciences (NCATS), 2011)
Among all 320,000 compounds or so, about 620 (0.19%) were called active. Inconclusive means that the source gave no clear call. Such entries were picked first, then a sample of the others. Cut-off read from the data, not from the text of the source: active = activation above about 80%; inconclusive = between about 30% and that limit; inactive = weaker than that.
Note: 0% is about no effect.

By UniProt entry, the sequences of proteins in these tests, tags left out.
UniProt Q8NER1, whole entry, looked up: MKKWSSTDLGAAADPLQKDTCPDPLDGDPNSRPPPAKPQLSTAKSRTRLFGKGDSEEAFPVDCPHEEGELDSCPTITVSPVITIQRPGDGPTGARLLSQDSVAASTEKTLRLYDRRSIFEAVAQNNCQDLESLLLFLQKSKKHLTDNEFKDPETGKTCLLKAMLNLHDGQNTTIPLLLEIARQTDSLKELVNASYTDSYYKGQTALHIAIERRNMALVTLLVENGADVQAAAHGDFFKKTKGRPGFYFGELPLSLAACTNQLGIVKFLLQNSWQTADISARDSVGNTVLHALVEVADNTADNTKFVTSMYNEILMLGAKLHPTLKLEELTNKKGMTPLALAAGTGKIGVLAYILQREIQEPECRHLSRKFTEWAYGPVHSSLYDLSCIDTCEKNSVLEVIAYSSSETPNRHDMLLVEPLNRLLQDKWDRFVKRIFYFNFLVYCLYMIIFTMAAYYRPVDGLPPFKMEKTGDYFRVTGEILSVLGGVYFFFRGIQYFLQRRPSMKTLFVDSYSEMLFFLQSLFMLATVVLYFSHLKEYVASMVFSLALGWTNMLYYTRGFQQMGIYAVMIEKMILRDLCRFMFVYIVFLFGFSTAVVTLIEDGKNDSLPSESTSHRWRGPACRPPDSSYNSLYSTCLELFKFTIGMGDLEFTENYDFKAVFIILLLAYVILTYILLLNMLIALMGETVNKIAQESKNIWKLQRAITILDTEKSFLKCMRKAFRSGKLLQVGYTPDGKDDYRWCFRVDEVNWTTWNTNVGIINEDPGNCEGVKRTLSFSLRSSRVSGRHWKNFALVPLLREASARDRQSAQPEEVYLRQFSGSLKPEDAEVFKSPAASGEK

These compounds were tested against Transient receptor potential cation channel subfamily V member 1 (Homo sapiens) (UniProt Q8NER1) (assay: HTS Assay for Compounds that Act as Agonists of the Vanilloid Receptor 1). Details: TRPV1-expressing cells, Fluo-8 calcium influx, agonist mode; at 8.33 µM, stronger effect = higher value.
Method in brief: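 TRPV1-expressing cells were cultured overnight at 35.5C and loaded with Fluo-8 calcium dye for 40 to 90 min at room temperature. After a 10 s baseline, compound was added and calcium influx was read kinetically for 3 min (ex 480/em 520 nm).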
For COc1ccc(CCNc2oc(-c3ccccc3OC)nc2C#N)cc1OC, the activation was inactive: 2.03%. In the case of COc1cc2c(cc1OC)CN(C(=O)/C=C/c1cc(OC)c(OC)c(OC)c1)CC2, the activation is reported as inactive: 5.11%. For Cc1cc(NC(=O)CSc2nnc3ccc(-c4ccc(F)cc4)nn23)no1, the activation was inactive: 4.62%. N#Cc1c(C(F)(F)F)cc(-c2ccc(F)cc2)[nH]c1=O was tested, and the activation was inactive: 3.41%. In the case of COc1ccc(-c2csc3nc(C)nc(N4CCCCC4)c23)cc1OC, the activation is reported as inactive: -4.18%. CCc1ccc(NC(=O)C2C3/C=C\CCCCC32)cc1 (stereo unspecified) was tested, and the activation was inconclusive: 69.5%. With CCC(CC)c1nnc(NC(=O)C2CSC3(C)CCC(=O)N23)s1 (stereo unspecified) the activation was inactive: -3.02%. With O=C(N/N=C\c1ccncc1)c1ccc(Cl)s1 the activation was inconclusive: 33.9%. Nc1nn2c(C(F)(F)F)cc(=O)[nH]c2c1N=Nc1cccc(F)c1 was tested, and the activation was inactive: -1.15%. For CCOC(=O)C1=CC[C@H]2c3c(c4ccccc4n3C)C(=O)C1N2C(=O)OC(C)(C)C, the activation was inconclusive: 31.2%. With CCOC(=O)c1c[nH]c(=S)n(-c2ccccc2)c1=O the activation was inactive: -2.18%. With Nc1ccc(N2CCCCC2)c(Cl)c1 the activation was inactive: -0.78%. With CC(Sc1nnnn1-c1ccccc1)C(=O)Nc1ccc(N2CCN(C)CC2)cc1 (stereo unspecified) the activation was inactive: -2.3%. CC(C)Cn1c(N2CCN(CC(=O)Nc3ccc(Cl)cc3)CC2)nc2ccccc21 was tested, and the activation was inactive: 0.341%. In the case of O=C(NCCC(c1ccccc1)c1ccccc1)c1ccc(Br)o1, the activation is reported as inconclusive: 65.7%. In the case of CCOc1ccc(C(=O)Cc2cc(OC)c(OC)cc2[N+](=O)[O-])cc1, the activation is reported as inconclusive: 32.3%. With CCOc1ccc(-n2c(SCC(=O)Nc3cc(C)on3)nc3c(c2=O)SCC3)cc1 the activation was inactive: 1.85%. For Cn1cc(CCCC(=O)NCc2ccccc2)c2ccccc21, the activation was inconclusive: 61.6%. For N#Cc1cc2c(nc1SCC1COc3ccccc3O1)CCC2 (stereo unspecified), the activation was inconclusive: 46.5%. CC(=O)c1ccc(N2CCN(C(=O)Cc3ccccc3)CC2)c(F)c1 was tested, and the activation was inconclusive: 41.7%. With COc1ccc2[nH]c(C(=O)N/N=C/c3ccc(OC)c(O)c3)cc2c1 the activation was inconclusive: 65%. For CCN(CC(=O)NCc1cccs1)C(=O)CCc1c[nH]c2ccccc12, the activation was inconclusive: 50.2%. O=C(NCC1CCCO1)c1ccc(-c2cccc(C(F)(F)F)c2)o1 (stereo unspecified) was tested, and the activation was inconclusive: 50.7%. With Cc1ccc(C)c(N2CCN(S(=O)(=O)c3ccc4c(c3)CCC(=O)N4)CC2)c1 the activation was inconclusive: 52%. In the case of Cc1ccccc1C(=O)Nc1cccc(NC(=O)c2ccccc2[N+](=O)[O-])c1, the activation is reported as inactive: 1.34%. For Cc1ccc(-n2c(=O)cc(N3CC(C)CC(C)C3)[nH]c2=O)cc1 (stereo unspecified), the activation was inconclusive: 52%. In the case of Cn1c(NC(=O)CC2CCCCC2)cc(=O)n(C)c1=O, the activation is reported as inconclusive: 33.4%. With Cc1ccc([N+](=O)[O-])cc1S(=O)(=O)Nc1ccc(N2CCOCC2)cc1 the activation was inactive: 0.0178%. With Cc1noc(C)c1COc1ccccc1C(=O)NNC(=O)c1ccccc1 the activation was inconclusive: 30.8%. For CC(C)N(C(=O)COc1ccc(Br)cc1Cl)C(C)C, the activation was inactive: 14%. COc1ccc2[nH]cc(CC(=O)O)c2c1 was tested, and the activation was inactive: 0.061%. In the case of CN(C)CCn1c(C(=O)Nc2ccccc2)cc2ccccc21, the activation is reported as inconclusive: 37.1%. With OC(CNCC(c1ccco1)N1CCCCC1)c1ccccc1 (stereo unspecified) the activation was inactive: -4.59%. For COc1ccc(CC(=O)NCc2ccc(F)cc2)cc1S(=O)(=O)N1CCOCC1, the activation was inactive: 1.65%. For COc1cccc(C(=O)NCCSc2c(C)[nH]c3ccccc23)c1OC, the activation was inconclusive: 50.9%. CCOc1cccc(NC(=O)c2ccc(S(=O)(=O)N3CCCC3)cc2)c1 was tested, and the activation was inconclusive: 66.8%. COc1ccccc1C(=O)NC1CCN(C(=S)NCCc2ccccc2)CC1 was tested, and the activation was inconclusive: 33.2%. With Cc1cccc(NC(=O)c2cc([N+](=O)[O-])ccc2NCC2CCCO2)n1 (stereo unspecified) the activation was inconclusive: 43.9%. For O=C(O)c1cc2c(o1)CCC/C2=N\O, the activation was inactive: -1.84%. With O=C(/C=C/c1ccccc1)Nc1ccc2c(c1)OCCO2 the activation was inconclusive: 37.9%. For CC(Sc1nnc2c(n1)C1CCC2(C)C1(C)C)C(=O)Nc1ccccc1 (stereo unspecified), the activation was inconclusive: 43.9%. With O=C(CC1SC(=Nc2ccc(OC(F)F)cc2)N(CCN2CCOCC2)C1=O)Nc1ccccc1 (stereo unspecified) the activation was inactive: 21.3%. CCOc1ccc(N=Cc2ccc3ccccc3c2)cc1 was tested, and the activation was inactive: 4.23%. CC(=O)Nc1ccc(Oc2sc(C(=O)c3ccccc3)c(N)c2C#N)cc1 was tested, and the activation was inconclusive: 48.3%. For O=C(COc1ccc(Cl)cc1)NC1CCSC1=O (stereo unspecified), the activation was inconclusive: 37.8%. In the case of CC(=O)Nc1ccc2c(c1)nc(CCN1CCOCC1)n2C, the activation is reported as inactive: -1.93%. O=C(NC1CCCC1)C(=O)N(c1ccccc1F)C(C(=O)NCC1CCCO1)c1cccs1 (stereo unspecified) was tested, and the activation was inconclusive: 33%. In the case of Cc1ccc2[nH]c(C(=O)Nc3ccc(F)cc3)cc2c1, the activation is reported as inconclusive: 35.6%. With CC(=O)c1cccc(NS(=O)(=O)N(C)C)c1 the activation was inactive: -3.48%. In the case of CSc1cccc(NC(=O)C2CCCN(c3ncnc4c3nc3n4CCCCC3)C2)c1 (stereo unspecified), the activation is reported as inconclusive: 41.3%. For O=C(CCCc1ccccc1)NCc1ccccc1Cl, the activation was inconclusive: 45.8%. In the case of O=C(Nc1ccccc1O)c1ccccc1O, the activation is reported as inactive: 11.3%. COc1ccc(C2CC2C(=O)c2ccccn2)cc1 (stereo unspecified) was tested, and the activation was inactive: 13.5%. For COCCN=c1scc(-c2ccco2)n1/N=C/c1ccc(O)c(O)c1O, the activation was inactive: 4.15%. In the case of CC(C)n1c2ccccc2c2nnc(SCC(=O)Nc3ccccc3C(=O)O)nc21, the activation is reported as inactive: 0.517%. Cc1ccc(OC(C)C(=O)Nc2cc(C)on2)cc1 (stereo unspecified) was tested, and the activation was inconclusive: 32.4%. Cc1ccc(Cn2ccc(NC(=O)c3cc(-c4ccc5c(c4)OCO5)on3)n2)cc1 was tested, and the activation was inactive: 2.13%. In the case of S=C(NC1CC2CCC1C2)N1CCN(c2cccc(Cl)c2)CC1 (stereo unspecified), the activation is reported as inconclusive: 33.8%. In the case of CNS(=O)(=O)c1ccc(NC(=O)c2csc(C)c2)cc1, the activation is reported as inconclusive: 45.8%. CC1=C(C(=O)OC2CCCCC2)C(c2ccc(C)o2)C2=C(CC(C)(C)CC2=O)N1 (stereo unspecified) was tested, and the activation was inconclusive: 41%. CCc1ccccc1NC(=S)N(CCCN1CCOCC1)Cc1cccs1 was tested, and the activation was inconclusive: 48%. With Cc1ccc(NC(=O)CCc2nc3ccccc3[nH]2)cc1C the activation was inconclusive: 51.7%. In the case of CCOc1ccc(S(=O)(=O)N2CCCC(C(=O)N3CCOCC3)C2)cc1Cl (stereo unspecified), the activation is reported as inconclusive: 47%. With CN(C)C(=O)[C@@H]1C[C@H]1[C@@H](NC(=O)OCc1ccccc1)c1ccccc1 the activation was inconclusive: 30.7%. For CC1C=CCC2C(=O)N(c3cccc(C(=O)Nc4ccc(Br)cc4)c3)C(=O)C12 (stereo unspecified), the activation was inconclusive: 37.4%. In the case of Cc1cc(C(C)(C)C)oc1C(=O)N(CC(=O)NC1CCCC1)Cc1ccc(Cl)cc1, the activation is reported as inconclusive: 37.7%. In the case of CCCCCCSc1cccc(-c2nc3ccc(Cl)cn3c2NCc2ccccc2)c1, the activation is reported as inconclusive: 53.2%. In the case of CC(NC(=O)c1ccccc1)C(=O)OCC(=O)c1c(N)n(C)c(=O)n(C)c1=O (stereo unspecified), the activation is reported as inactive: 0.485%. With CCOC(=O)c1ccc(NC(=S)NCCC2=CCCCC2)cc1 the activation was inconclusive: 55.7%. In the case of Cc1ccc(NC(=O)CCCC2CCCCC2)c(O)c1, the activation is reported as inconclusive: 60.5%. In the case of Cc1c(O)ccc2cc(S(=O)(=O)c3ccccc3)c(=O)oc12, the activation is reported as inactive: 14.8%. Cc1c(C(=O)N2CCN(c3ccccn3)CC2)oc2c(F)cccc12 was tested, and the activation was inconclusive: 55.9%. With O=C(/C=C/c1ccccc1)N/C(=C/c1ccccc1)C(=O)N1CCCCC1 the activation was inconclusive: 39%. COc1ccc(NC(=O)CC2SC(N3CCOCC3)=NC2=O)cc1OC (stereo unspecified) was tested, and the activation was inactive: -5.17%. With Cc1[nH]nc(N=CC2=C(O)CC(c3ccco3)CC2=O)c1-c1ccccc1 (stereo unspecified) the activation was inconclusive: 49%. In the case of Cc1nnc(N/N=C/c2c(Cl)cccc2Cl)n1N, the activation is reported as inactive: -1.14%. O=C(COc1cccc(NC(=O)c2ccccc2)c1)c1ccccc1 was tested, and the activation was inconclusive: 34.6%. In the case of O=C(NCc1ccncc1)Nc1cccc(Cl)c1, the activation is reported as inconclusive: 48%. COc1ccc(S(=O)(=O)c2c(O)c3ccc(C(=O)Nc4ccccc4Cl)cc3[nH]c2=O)cc1 was tested, and the activation was inactive: -4.69%. With Cc1ccccc1C(=O)Nc1ccc(Br)cn1 the activation was inconclusive: 31.1%. In the case of O=C(Nc1ccc(F)cc1)N1CCCN(c2ccc(C(F)(F)F)cn2)CC1, the activation is reported as inconclusive: 77.9%. With Cc1cccc(NC(=O)COc2ccc3c(c2)CCC3)n1 the activation was inconclusive: 67.2%. CN(CCOc1ccc(Cl)cc1)C(=O)c1ccc(S(=O)(=O)N2CCOCC2)cc1 was tested, and the activation was inconclusive: 30.9%. For CCN1CCN(C2CCCCC2NS(=O)(=O)c2ccccc2)CC1 (stereo unspecified), the activation was inactive: -0.381%. O=C(NN1C(=O)C2C(c3ccccc3)C=CC(c3ccccc3)C2C1=O)c1ccccc1 (stereo unspecified) was tested, and the activation was inconclusive: 45.8%. For COc1ccc(CN(C)C(=O)c2cc(-c3ccc(C)cc3C)nc3ccccc23)c(OC)c1OC, the activation was inconclusive: 39.2%. In the case of COC(=O)C1CCN(C(=O)CCC2CCCCC2)CC1, the activation is reported as inconclusive: 34%. With O=C(c1ccccc1)c1ccc(OCC(=O)N2CCOCC2)cc1 the activation was inconclusive: 33.1%. For C/C=C(\C)C(=O)Nc1cccc(C2=NOC3(C2)C[C@H](C(N)=O)N(C(=O)c2cc([N+](=O)[O-])cc([N+](=O)[O-])c2)C3)c1 (stereo partly specified), the activation was inactive: 2.68%. COCCNC(=O)/C(C#N)=C/c1cc(C(C)C)c(OC)cc1C was tested, and the activation was inconclusive: 58.6%. CCCc1c(C(=O)N/N=C/c2cccnc2)nnn1-c1nonc1N was tested, and the activation was inactive: 19.5%.
